Taken from: PubChem BioAssay AID1053208 (Peter MacCallum Cancer Centre, 2014)
Here is a random part of about 17,000 reagents tested. Of all reagents, 788 (4.7%) got an active call. 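Calls rest on z-score classes alone; an extra cut-off of viability at most 70% of control was not applied to them.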 Entries without a mark were called inactive. The numbers tell different reagents against one gene apart.

- Aim: 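Genes whose silencing cuts survival of bone tumour cells only with doxorubicin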 (primary screen)
- Cells: mouse osteosarcoma cells, early-passage culture from an engineered mouse model of fibroblastic bone tumour
- Reagents: siRNA pool against mouse genes, 40 nM
- Timing: about 120 h (48 h before drug, then 72 h with drug)
- Challenge: doxorubicin 100 nM for 72 h, roughly 30-40% inhibitory dose
- Measured: 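Luminescent ATP signal taken as viability with or without 100 nM doxorubicin for 72 h; mean of two wells set against non-targeting siRNA and turned into robust z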
- Reading the numbers: viability z-score with doxorubicin and doxorubicin viability vs non-targeting: higher = more viable cells under doxorubicin; viability z-score without drug: higher = more viable cells with knock-down alone; z-score of drug to no-drug ratio: higher = less drug sensitisation by knock-down
- Rule for the call: 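a pool counts as active when its viability z-score with doxorubicin is -2 or below and its z-score without drug lies between -2 and 2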

gene knocked down | reagent no. | combined z-score class | viability z-score with doxorubicin | viability z-score without drug | z-score of drug to no-drug ratio | doxorubicin viability vs non-targeting
Entpd5 (ectonucleoside triphosphate diphosphohydrolase 5) | 1 | no change with or without drug | 0 | 0.84 | -0.45 | 0.94
Nol12 (nucleolar protein 12) | 1 | low cell count with doxorubicin only (active) | -2.59 | -1.52 | -1.69 | 0.71
Tcl1b3 (T cell leukemia/lymphoma 1B, 3) | 1 | low cell count with doxorubicin only (active) | -2.36 | -0.84 | -1.91 | 0.73
Dock1 (dedicator of cytokinesis 1) | 1 | no change with or without drug | -0.45 | -0.84 | 0.22 | 0.9
Mfap2 (microfibrillar-associated protein 2) | 1 | no change with or without drug | -0.22 | 0.34 | -0.34 | 0.92
Fgfr1 (fibroblast growth factor receptor 1) | 1 | no change with or without drug | -1.57 | -1.18 | -0.79 | 0.8
Apex1 (apurinic/apyrimidinic endonuclease 1) | 1 | no change with or without drug | -1.35 | 0.84 | -1.8 | 0.82
Rbm25 (RNA binding motif protein 25) | 1 | no change with or without drug | 0.34 | 1.85 | -0.67 | 0.97
Rbm25 (RNA binding motif protein 25) | 2 | no change with or without drug | 0.45 | -1.18 | 1.46 | 0.98
Hbb-bh1 (hemoglobin Z, beta-like embryonic chain) | 1 | no change with or without drug | 0.34 | 0 | 0.45 | 0.97
Zfp184 (zinc finger protein 184 (Kruppel-like)) | 1 | low cell count with doxorubicin only (active) | -3.15 | 1.18 | -3.71 | 0.66
Zfp280d (zinc finger protein 280D) | 1 | no change with or without drug | -0.11 | -0.84 | 0.56 | 0.93
Get1 (guided entry of tail-anchored proteins factor 1) | 1 | low cell count with doxorubicin only (active) | -2.47 | -1.69 | -1.46 | 0.72

In a second layout: results already given.
Rbm25 (RNA binding motif protein 25) #2
- combined z-score class: no change with or without drug
- viability z-score with doxorubicin: 0.45
- viability z-score without drug: -1.18
- z-score of drug to no-drug ratio: 1.46
- doxorubicin viability vs non-targeting: 0.98

Hbb-bh1 (hemoglobin Z, beta-like embryonic chain)
- combined z-score class: no change with or without drug
- viability z-score with doxorubicin: 0.34
- viability z-score without drug: 0
- z-score of drug to no-drug ratio: 0.45
- doxorubicin viability vs non-targeting: 0.97

Next records follow:
gene knocked down | reagent no. | combined z-score class | viability z-score with doxorubicin | viability z-score without drug | z-score of drug to no-drug ratio | doxorubicin viability vs non-targeting
Runx2 (runt related transcription factor 2) | 1 | high cell count without drug only | 0.67 | 2.36 | -0.67 | 1
Pitpnm2 (phosphatidylinositol transfer protein, membrane-associated 2) | 1 | low cell count with doxorubicin only (active) | -2.02 | 0.17 | -2.14 | 0.76
Tmed11 (transmembrane p24 trafficking protein 11) | 1 | no change with or without drug | 0 | 1.35 | -0.79 | 0.94
Chrna5 (cholinergic receptor, nicotinic, alpha polypeptide 5) | 1 | no change with or without drug | -0.11 | -0.34 | 0.22 | 0.93
Slc16a7 | 1 | no change with or without drug | -1.57 | -1.85 | -0.34 | 0.8
Mapk9 (mitogen-activated protein kinase 9) | 1 | no change with or without drug | 1.35 | 0.17 | 1.35 | 1.06
Or52z12 (olfactory receptor family 52 subfamily Z member 12) | 1 | no change with or without drug | -0.45 | -1.18 | 0.45 | 0.9
